Taken from: PubChem BioAssay AID504774 (Drosophila RNAi Screening Center, 2011)
Test: 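Fly genes whose loss alters survival after alkylation damage to DNA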 (primary screen). Cells: Drosophila Kc167 cells. Reagents: long dsRNA against Drosophila genes, about 0.25 µg dsRNA per well. Duration: about 6 days: 3 days knock-down, then 3 days with or without MMS. Conditions: methyl methanesulphonate 0.004% (w/v) for 3 days after knock-down. Measurement: 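Viability in wells given MMS, read as ATP luminescence, normalised by quantiles plate by plate and averaged across replicates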. Scale: mean viability with MMS: higher = more surviving cells after MMS.
The deposit covers about 23,000 reagents; this is a random part of those that have a named target and a result. 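Values are quantile-normalised luminescence on an arbitrary scale; higher means more cells surviving MMS.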 Reagents against one gene are numbered here. Further read-outs or replicates are left out here.

With knock-down of mts (microtubule star), the screen gave mean viability with MMS 2.88e6.
For CG8665, the entry reads mean viability with MMS 3.46e6.
Against CG14013 the deposit lists mean viability with MMS 3.46e6.
CG11436 showed mean viability with MMS 3.40e6.
With knock-down of sosie #1, the record shows mean viability with MMS 3.58e6.
Silencing of sosie #2 resulted in: mean viability with MMS 3.66e6.
Silencing of lms (lateral muscles scarcer) resulted in: mean viability with MMS 3.39e6.
CG34187 (retired record) gave mean viability with MMS 3.54e6.
Against mod (modulo) the deposit lists mean viability with MMS 3.56e6.
Silencing of Fur2 (Furin 2) gave: mean viability with MMS 3.48e6.
For CG42458 #1, the values are mean viability with MMS 3.02e6.
With knock-down of CG42458 #2, the screen gave mean viability with MMS 3.56e6.
Silencing of CG42458 #3 came out at: mean viability with MMS 3.26e6.
Depletion of CG10555 #1 gave: mean viability with MMS 3.42e6.
After knock-down of CG10555 #2, the screen gave mean viability with MMS 3.78e6.
drm (drumstick) showed mean viability with MMS 3.59e6.
Knock-down of CG32572 #1 came out at: mean viability with MMS 3.58e6.
CG32572 #2 scored mean viability with MMS 3.56e6.
For CG1275, the values are mean viability with MMS 3.42e6.
After knock-down of CG14410 the results were mean viability with MMS 3.60e6.
TyrRII (Tyramine receptor II) gave mean viability with MMS 3.50e6.
For RpL35A (Ribosomal protein L35A) the deposit lists mean viability with MMS 3.15e6.
After knock-down of Spps (Sp1-like factor for pairing sensitive-silencing) #1 the results were mean viability with MMS 3.31e6.
Spps (Sp1-like factor for pairing sensitive-silencing) #2 gave mean viability with MMS 3.76e6.
Against CG8230, the entry reads mean viability with MMS 3.46e6.
For Sil1 (Sil1 nucleotide exchange factor) the deposit lists mean viability with MMS 3.33e6.
With knock-down of euc (eucalyptus), the screen gave mean viability with MMS 3.77e6.
Knock-down of CG15239 gave: mean viability with MMS 3.58e6.
For Gasz the deposit lists mean viability with MMS 3.66e6.
After knock-down of Prosbeta1 (Proteasome beta1 subunit), the screen gave mean viability with MMS 2.77e6.
CG11317 gave mean viability with MMS 3.47e6.
With knock-down of CR42785 (pseudo), the screen gave mean viability with MMS 3.80e6.
Against unc-119, the entry reads mean viability with MMS 3.56e6.
Nepl6 (Neprilysin-like 6) showed mean viability with MMS 1.77e6.
Silencing of ort (ora transientless) came out at: mean viability with MMS 3.62e6.

Already shown: entries from further up.
Prosbeta1 (Proteasome beta1 subunit) — mean viability with MMS: 2.77e6
CG11317 — mean viability with MMS: 3.47e6
CR42785 (pseudo) — mean viability with MMS: 3.80e6
unc-119 — mean viability with MMS: 3.56e6
Nepl6 (Neprilysin-like 6) — mean viability with MMS: 1.77e6
ort (ora transientless) — mean viability with MMS: 3.62e6
